PubChem BioAssay AID652243 – Drosophila RNAi Screening Center | 2013

Screen: 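Fly regulators of androgen-dependent reporter output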 (primary screen)
System: Drosophila S2R+ cells
Reagent: long dsRNA against Drosophila genes
Timing: 72 h (48 h, then 24 h hormone)
Treatment: synthetic androgen R1881 at 10 nM for 24 h
Measurement: 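Firefly light from an androgen-responsive reporter and Renilla control light per well, raw and unnormalised, for each of two replicates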
Scale: firefly reporter light: higher = more light from androgen-responsive reporter; Renilla control light: higher = more constitutive control signal (cell number, transfection)
Rule for the call: 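Across duplicate plates, a knock-down whose log firefly/Renilla ratio shifted a set fold down or up from the GFP/LacZ control mean was a hit; the downward cut appears as both 1.5 and 3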
Calls: active = hit: reporter lowered or raised; inactive = no hit
In all, the deposit lists about 24,000 reagents; this is a random part of those that have a named target and a result. Of all reagents, 246 (1%) got an active call. 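Plates not normalised; calls are printed but the firefly/Renilla ratio behind them is not deposited; fold cut for lowering reported inconsistently.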 Raw values vary from plate to plate and are shown uncorrected. A plus sign joins genes that one reagent is predicted to hit. Not given: the amount of reagent.

target	amplicon	firefly reporter light, replicate 1	firefly reporter light, replicate 2	Renilla control light, replicate 1	Renilla control light, replicate 2	outcome
Ser7	DRSC18201	97375	54457	6.26e5	6.65e5	inactive
CG42271	DRSC19809	66790	1.20e5	2.63e5	6.10e5	inactive
CG42271	DRSC22894	5.65e5	1.08e6	2.26e6	2.40e6	inactive
CG42271	DRSC27249	1.85e5	2.74e5	4.90e5	5.74e5	inactive
CG42271	DRSC27338	5.48e5	5.61e5	7.82e5	8.37e5	inactive
CG42271	DRSC39296					inactive
SsRbeta	DRSC11290	25713	39615	5.57e5	4.32e5	inactive
kin17	DRSC11890	1.27e5	1.39e5	1.80e6	1.14e6	inactive
kin17	DRSC26821	3.92e5	3.31e5	5.90e5	5.20e5	inactive
Gr64b + Gr64c	DRSC08444	1.77e5	1.97e5	1.33e6	1.70e6	inactive
Gr64b + Gr64c	DRSC08445	1.70e5	1.50e5	2.36e6	2.47e6	inactive
Gr64b + Gr64c	DRSC27568	2.94e5	2.93e5	9.01e5	7.40e5	inactive
CG3817	DRSC15515	48944	1.35e5	4.12e5	4.57e5	inactive
CG3817	DRSC27548	2.32e5	2.20e5	8.27e5	9.19e5	inactive
Vha16-4	DRSC07321	47389	86181	1.26e6	1.26e6	inactive
ome	DRSC09322	2.67e5	2.21e5	3.84e5	4.77e5	inactive
ome	DRSC10282	2.17e5	1.93e5	1.78e6	1.76e6	inactive
ome	DRSC11380	1.31e5	1.66e5	1.83e6	1.54e6	inactive
CG6254	DRSC16002	65057	36362	6.01e5	3.25e5	inactive
CG13284	DRSC02256	2.02e5	1.57e5	1.96e6	1.70e6	inactive
CG3604	DRSC00618	1.30e5	81266	9.59e5	7.39e5	inactive
lncRNA:CR31781	DRSC02431	8.34e5	5.87e5	2.50e6	2.83e6	inactive
lncRNA:CR31781	DRSC02432	1.51e5	1.67e5	1.36e6	9.51e5	inactive
CG10384	DRSC03933	1.24e5	1.67e5	3.16e5	4.95e5	inactive
CG10384	DRSC28924	3.43e5	4.59e5	1.05e6	1.81e6	inactive
ND-B17.2	DRSC00577	1.34e5	1.04e5	1.20e6	9.73e5	inactive
ND-B17.2	DRSC26940	4.92e5	3.79e5	9.74e5	6.27e5	inactive
Shc	DRSC11284	2.81e5	1.56e5	2.15e6	1.33e6	inactive
ds	DRSC00815	57221	47121	5.79e5	4.65e5	inactive
Rab39	DRSC17827	1.13e5	1.47e5	2.26e6	2.75e6	inactive
Fum3	DRSC10592	1.74e5	1.28e5	1.71e6	1.46e6	inactive
Fum3	DRSC25432	5.48e5	5.56e5	7.04e5	7.61e5	inactive
sba	DRSC13643	8583	11456	59331	55116	inactive
sba	DRSC17050	1.10e5	1.50e5	1.85e6	2.19e6	inactive
sba	DRSC25797	2.47e5	3.27e5	7.23e5	6.02e5	inactive
Hmt-1	DRSC15555	43124	64852	2.59e5	5.59e5	inactive
Hsc70-5	DRSC07442	6.99e5	4.34e5	1.70e6	1.68e6	inactive
Hsc70-5	DRSC24015	2.89e5	2.20e5	5.53e5	4.81e5	inactive
LysD	DRSC26238	4.27e5	3.64e5	4.25e5	7.20e5	inactive
CheB98a	DRSC14882	1.46e5	1.85e5	2.19e6	2.66e6	inactive
CG14787	DRSC18606	1.90e5	2.63e5	4.10e6	3.08e6	inactive
Trxr2	DRSC11900	1.51e5	1.18e5	1.68e6	1.12e6	inactive
Trxr2	DRSC25519	3.95e5	3.27e5	6.11e5	5.08e5	inactive
Utx	DRSC02872	2.78e5	2.76e5	1.76e6	2.19e6	inactive
bark	DRSC00635	1.18e5	1.04e5	8.77e5	1.05e6	inactive
bark	DRSC27011	4.40e5	3.77e5	8.87e5	5.68e5	inactive
CARPB	DRSC18437	7.40e5	8.54e5	1.63e6	1.95e6	inactive
CARPB	DRSC18438	3.37e5	3.85e5	3.00e6	2.84e6	inactive
CG11964	DRSC14447	42713	21126	1.89e5	2.39e5	inactive
CG11964	DRSC25900	3.03e5	2.45e5	8.63e5	7.15e5	inactive
AkhR	DRSC03329	1.22e6	1.15e6	2.10e6	1.66e6	inactive
AkhR	DRSC28694	5.17e5	3.70e5	1.26e6	1.31e6	inactive
CG4477	DRSC10425	2.42e5	2.80e5	3.01e6	2.14e6	inactive
CG4975 + CG4984	DRSC24817	8.21e5	7.98e5	9.82e5	1.09e6	inactive
CG4975 + CG4984	DRSC39031	5.15e5	6.07e5	7.32e5	1.20e6	inactive
CG4259	DRSC00645	1.23e5	64247	4.11e5	2.94e5	inactive
CG4259	DRSC29614	1.04e6	8.73e5	1.17e6	1.17e6	inactive
CG42512 + CG32573	DRSC19532	6.42e5	5.91e5	3.56e6	3.05e6	inactive
CG42512 + CG32573	DRSC19906	1.97e5	1.55e5	1.50e6	1.52e6	inactive
CG42512 + CG32573	DRSC22782	7.20e5	9.79e5	1.12e6	1.33e6	inactive

Quoted from the listing for reference:
target	amplicon	firefly reporter light, replicate 1	firefly reporter light, replicate 2	Renilla control light, replicate 1	Renilla control light, replicate 2	outcome
CG14787	DRSC18606	1.90e5	2.63e5	4.10e6	3.08e6	inactive
Trxr2	DRSC11900	1.51e5	1.18e5	1.68e6	1.12e6	inactive
Trxr2	DRSC25519	3.95e5	3.27e5	6.11e5	5.08e5	inactive
